For 22 compounds, survivor count and T/C results are on record in PubChem BioAssay AID256 (DTP/NCI, 2004).

For the assay, the system named is CD2F1 mice, L1210 leukemia ip, survival T/C. The assay is described as follows: NCI In Vivo Anticancer Drug Screen. Data for tumor model L1210 Leukemia (intraperitoneal) in CD2F1 (CDF1) mice. To be noted: higher T/C = longer survival. In short, it runs like this: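 Each value reflects a quotient of treated over vehicle control outcomes in mice with a transplanted tumor.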

[1] abbreviates: T/C endpoint: mean survival time, dose: 150.0 mg/kg/injection, schedule: Q01DX001 (ip), vehicle: saline.
The mark [2] stands for this setting: T/C endpoint: mean survival time, dose: 300.0 mg/kg/injection, schedule: Q01DX001 (ip), vehicle: saline.
The mark [3] stands for this setting: T/C endpoint: mean survival time, dose: 100.0 mg/kg/injection, schedule: Q01DX001 (ip), vehicle: saline with Tween-80.
Where [4] appears, read: T/C endpoint: mean survival time, dose: 200.0 mg/kg/injection, schedule: Q01DX001 (ip), vehicle: saline with Tween-80.
Where [5] appears, read: T/C endpoint: mean survival time, dose: 400.0 mg/kg/injection, schedule: Q01DX001 (ip), vehicle: saline with Tween-80.
Setting [6] is: T/C endpoint: mean survival time, dose: 100.0 mg/kg/injection, schedule: Q01DX009 (ip), vehicle: saline with Tween-80.

The list is a part of this screen's results and no random one: it gathers tests that were run many times, whatever their T/C, doses with no T/C, and many T/C values between a quarter and a half above the control. Further doses and runs are listed elsewhere. T/C is the treated group as % of the vehicle group. Some entries give survivors of the animals treated and no T/C: the source files T/C as zero there, which appears to mark a toxic dose or a test without result, not a measured value. Some survivor counts are full or nearly so, which does not show that the dose was tolerated: survival well below the control is almost never listed, so the zero probably covers shortened survival too. Survivors were counted at the toxicity check, usually on the fifth day, unless a day is given; later deaths do not show. Schedule codes are those of the source, taken here to give the interval after Q, in days (D) or hours (H), and the number of doses after X. Some entries hold several experiments; the results are listed from low to high. Where survival is the endpoint, this PubChem deposit counts one and a half times the control or more as active, and values a quarter to a half above the control carry no call in these data; other NCI protocols may use other cut-offs. Signs of the kind (2×) stand for listed records that agree. Some molecules as drawn cover several salts, stereoisomers or complexes of the source; a dose is that of the sample tested. Some T/C values carry the count of animals alive at the toxicity check (mostly the fifth day); where none is given, no animal had died by that day.

As to `O=C(CC(=O)C(F)(F)C(F)(F)C(F)(F)F)C(F)(F)F.O=C(CC(=O)C(F)(F)C(F)(F)C(F)(F)F)C(F)(F)F.[Cu]`, the survivor count is 1 of 3 (T/C endpoint: median survival time, dose: 50.0 mg/kg/injection, schedule: Q04DX002 (ip), vehicle: saline with Tween-80); 0 of 3 (T/C endpoint: median survival time, dose: 100.0 mg/kg/injection, schedule: Q04DX002 (ip), vehicle: saline with Tween-80); 0 of 3 (T/C endpoint: median survival time, dose: 200.0 mg/kg/injection, schedule: Q04DX002 (ip), vehicle: saline with Tween-80).

Regarding `CC(C)(CCC#N)C(=O)c1ccccc1`, the survivor count (T/C endpoint: mean survival time, dose: 400.0 mg/kg/injection, schedule: Q04DX002 (ip), vehicle: saline with Tween-80) is listed as 0 of 3.

With `CC(C)(C)C1CCCCC1`, the survivor count (T/C endpoint: mean survival time, dose: 400.0 mg/kg/injection, schedule: Q01DX009 (ip), vehicle: Klucel (hydroxypropylcellulose) (HPC)) was 3 of 6.

Consider `CC[NH-].[Cl][Pt+2][Cl].[NH2-]`, for which the T/C reads like this: (T/C endpoint: mean survival time, dose: 3.13 mg/kg/injection, schedule: Q04DX003 (ip), vehicle: water) 134 % of control; (T/C endpoint: mean survival time, dose: 6.25 mg/kg/injection, schedule: Q04DX003 (ip), vehicle: distilled water + Tween-80) 127 % of control. In addition, the survivor count (T/C endpoint: mean survival time, dose: 12.5 mg/kg/injection, schedule: Q04DX003 (ip), vehicle: distilled water + Tween-80) was 6 of 6; the survivor count (T/C endpoint: mean survival time, dose: 12.5 mg/kg/injection, schedule: Q04DX003 (ip), vehicle: water) is listed as 6 of 6; the survivor count (T/C endpoint: mean survival time, dose: 50.0 mg/kg/injection, schedule: Q04DX003 (ip), vehicle: distilled water + Tween-80) was 0 of 6; the survivor count (T/C endpoint: mean survival time, dose: 100.0 mg/kg/injection, schedule: Q04DX003 (ip), vehicle: distilled water + Tween-80) is reported as 0 of 6; the survivor count (T/C endpoint: mean survival time, dose: 200.0 mg/kg/injection, schedule: Q04DX003 (ip), vehicle: distilled water + Tween-80) is reported as 0 of 6.

On to `COc1cccc2c1C(=O)c1c(O)c3c(c(O)c1C2=O)C[C@@](O)(/C(C)=N\NC=O)C[C@@H]3OC1CC(N)C(O)C(C)O1` (stereo partly specified), for which the T/C reads like this: (T/C endpoint: mean survival time, dose: 3.0 mg/kg/injection, schedule: Q01DX009 (ip), vehicle: saline) 127 % of control; (T/C endpoint: mean survival time, dose: 5.0 mg/kg/injection, schedule: Q01DX009 (ip), vehicle: saline) 134 % of control; (T/C endpoint: mean survival time, dose: 8.0 mg/kg/injection, schedule: Q01DX009 (ip), vehicle: saline) 140 and 148 % of control; (T/C endpoint: mean survival time, dose: 8.0 mg/kg/injection, schedule: Q04DX003 (ip), vehicle: saline) 132 % of control; (T/C endpoint: mean survival time, dose: 13.3 mg/kg/injection, schedule: Q01DX009 (ip), vehicle: saline) 143 % of control; (T/C endpoint: mean survival time, dose: 13.3 mg/kg/injection, schedule: Q04DX003 (ip), vehicle: saline) 125 % of control.

For the compound `COc1ccc(C[As+](c2ccccc2)(c2ccccc2)c2ccccc2)cc1`, the survivor count is on record as 0 of 6 (T/C endpoint: mean survival time, dose: 75.0 mg/kg/injection, schedule: Q01DX001 (ip), vehicle: saline); 0 of 6 (T/C endpoint: mean survival time, dose: 80.0 mg/kg/injection, schedule: Q01DX001 (ip), vehicle: saline); 0 of 6 under setting [1]; 0 of 6 under setting [2].

As for `CNC(=O)OCc1c(COC(=O)NC)c(C)n(-c2ccc(OC)cc2)c1C`, under “T/C endpoint: mean survival time, dose: 100.0 mg/kg/injection, schedule: Q01DX009 (ip), vehicle: Klucel (hydroxypropylcellulose) (HPC)”, the survivor count is 3 of 6.

Turning to `CC(=O)OCC1OC([Se][As](C)C)C(OC(C)=O)C(OC(C)=O)C1OC(C)=O` (stereo unspecified), the survivor count (T/C endpoint: mean survival time, dose: 25.0 mg/kg/injection, schedule: Q01DX001 (ip), vehicle: saline with Tween-80) is listed as 2 of 6; the survivor count under setting [3] is 1 of 6; the survivor count under setting [4] is given as 0 of 6; the survivor count under setting [5] is 0 of 6.

Consider `N#Cc1cccc(/C=C/c2ccc(S(=O)(=O)F)cc2)c1`, for which the survivor count (T/C endpoint: mean survival time, dose: 400.0 mg/kg/injection, schedule: Q04DX003 (ip), vehicle: other) is 3 of 3 and 6 of 6.

For the compound `c1nc(SSc2ncnc3nc[nH]c23)c2[nH]cnc2n1`, the T/C was 134 % of control (T/C endpoint: mean survival time, dose: 1.9 mg/kg/injection, schedule: Q01DX009 (ip), vehicle: acetone); 139 % of control (T/C endpoint: mean survival time, dose: 2.9 mg/kg/injection, schedule: Q01DX009 (ip), vehicle: acetone); 137 % of control (T/C endpoint: mean survival time, dose: 4.4 mg/kg/injection, schedule: Q01DX009 (ip), vehicle: saline); 128 % of control (T/C endpoint: mean survival time, dose: 6.6 mg/kg/injection, schedule: Q01DX009 (ip), vehicle: saline); 145 % of control (T/C endpoint: mean survival time, dose: 44.0 mg/kg/injection, schedule: Q01DX001 (ip), vehicle: saline with Tween-80). Moreover, the survivor count is given as 4 of 6 (T/C endpoint: mean survival time, dose: 50.0 mg/kg/injection, schedule: Q01DX009 (ip), vehicle: saline with Tween-80) and 5 of 6 under setting [6].

Turning to `CC(=O)OC1COC(n2c(O)c(N=NC(N)=S)c3cc([N+](=O)[O-])ccc32)C(OC(C)=O)C1OC(C)=O` (stereo unspecified), the survivor count (T/C endpoint: mean survival time, dose: 200.0 mg/kg/injection, schedule: Q01DX005 (ip), vehicle: other) is listed as 1 of 3.

Consider `Nc1nc(Cl)c2[nH]cnc2n1`, for which the T/C reads like this: (T/C endpoint: mean survival time, dose: 20.0 mg/kg/injection, schedule: Q01DX009 (ip), vehicle: saline with Tween-80) 149 % of control; (T/C endpoint: mean survival time, dose: 30.0 mg/kg/injection, schedule: Q01DX009 (ip), vehicle: saline with Tween-80) 148 % of control; (T/C endpoint: mean survival time, dose: 200.0 mg/kg/injection, schedule: Q01DX009 (ip), vehicle: saline with Tween-80) 130 % of control; (T/C endpoint: mean survival time, dose: 225.0 mg/kg/injection, schedule: Q04DX003 (ip), vehicle: saline with Tween-80) 147 % of control. Also, the survivor count is, setting by setting: (T/C endpoint: mean survival time, dose: 300.0 mg/kg/injection, schedule: Q04DX003 (ip), vehicle: saline with Tween-80) 6 of 6; (T/C endpoint: mean survival time, dose: 400.0 mg/kg/injection, schedule: Q04DX003 (ip), vehicle: saline with Tween-80) 3 of 6.

For the compound `OC(CF)CF`, the survivor count by setting is: (T/C endpoint: mean survival time, dose: 50.0 mg/kg/injection, schedule: Q01DX009 (ip), vehicle: saline) 3 of 6; (T/C endpoint: mean survival time, dose: 100.0 mg/kg/injection, schedule: Q01DX009 (ip), vehicle: saline) 0 of 6.

For the compound `[Cl][Pt+2][Cl].[NH-]c1ccccc1-c1ccccc1[NH-]`, for the setting “T/C endpoint: mean survival time, dose: 200.0 mg/kg/injection, schedule: Q04DX003 (ip), vehicle: saline”, the survivor count was 1 of 6.

Consider `C=C(C)C(=O)OC1C/C(CO)=C\C(O)C/C(C)=C/C2OC(=O)C(=C)C21` (stereo unspecified), for which the T/C is 125 % of control (T/C endpoint: mean survival time, dose: 10.0 mg/kg/injection, schedule: Q01DX009 (ip), vehicle: saline + alcohol); 129 % of control (T/C endpoint: mean survival time, dose: 20.0 mg/kg/injection, schedule: Q01DX009 (ip), vehicle: saline + alcohol); 127 % of control [4 of 6 alive] (T/C endpoint: mean survival time, dose: 40.0 mg/kg/injection, schedule: Q01DX009 (ip), vehicle: saline + alcohol).

For the compound `C/C=C\C[P+](c1ccccc1)(c1ccccc1)c1ccccc1`, the survivor count reads like this: under setting [3], 0 of 6; under setting [4], 0 of 6; under setting [5], 0 of 6.

With `CC(=O)NC(C(=O)O)C(C)C.CC(=O)NC(C(=O)O)C(C)C.[NH-]C1CCCCC1[NH-].[Pt+2]` (stereo unspecified), the T/C was 127 % of control (T/C endpoint: median survival time, dose: 50.0 mg/kg/injection, schedule: Q04DX003 (ip), vehicle: saline) and 125, 130, 137, 149 % of control (T/C endpoint: median survival time, dose: 100.0 mg/kg/injection, schedule: Q04DX003 (ip), vehicle: saline).

As for `CCOC(=O)c1sc(=S)[nH]c1C`, the survivor count under setting [6] is on record as 6 of 6.

For the compound `Cc1ccc(/C=N/N2C(=O)CSC2=S)cc1`, the survivor count (T/C endpoint: mean survival time, dose: 300.0 mg/kg/injection, schedule: Q01DX001 (ip), vehicle: other) is 2 of 6.

For the compound `CC[C@@]1(OC(=O)C(N)CCC(=O)O)C(=O)OCc2c1cc1n(c2=O)Cc2cc3ccccc3nc2-1` (stereo partly specified), the T/C is, setting by setting: (T/C endpoint: median survival time, dose: 13.69 mg/kg/injection, schedule: Q04DX002 (ip), vehicle: water) 125 % of control; (T/C endpoint: median survival time, dose: 20.54 mg/kg/injection, schedule: Q04HX004 (iv), vehicle: water) 144 % of control (2×); (T/C endpoint: median survival time, dose: 27.39 mg/kg/injection, schedule: Q04DX002 (ip), vehicle: water) 125 % of control.

As for `CN(C)Cc1cc(OCc2ccccc2)cc(CN(C)C)c1O`, the survivor count is 0 of 6 under setting [1] and 0 of 6 under setting [2].

Turning to `CCOC(=O)NC(C)(C)CN(C(=O)OCC)C(C)C`, for the setting “T/C endpoint: mean survival time, dose: 400.0 mg/kg/injection, schedule: Q01DX009 (ip), vehicle: other”, the survivor count is listed as 4 of 6.
